Reference: the supplement of paper PMC10849652
Some of the results follow.

The chains behind the UniProt entries cited, without tags or fusion partners. Where a name states a change or a piece, a line headed by the entry shows the natural chain unless it says otherwise.
UniProt Q9NQZ7: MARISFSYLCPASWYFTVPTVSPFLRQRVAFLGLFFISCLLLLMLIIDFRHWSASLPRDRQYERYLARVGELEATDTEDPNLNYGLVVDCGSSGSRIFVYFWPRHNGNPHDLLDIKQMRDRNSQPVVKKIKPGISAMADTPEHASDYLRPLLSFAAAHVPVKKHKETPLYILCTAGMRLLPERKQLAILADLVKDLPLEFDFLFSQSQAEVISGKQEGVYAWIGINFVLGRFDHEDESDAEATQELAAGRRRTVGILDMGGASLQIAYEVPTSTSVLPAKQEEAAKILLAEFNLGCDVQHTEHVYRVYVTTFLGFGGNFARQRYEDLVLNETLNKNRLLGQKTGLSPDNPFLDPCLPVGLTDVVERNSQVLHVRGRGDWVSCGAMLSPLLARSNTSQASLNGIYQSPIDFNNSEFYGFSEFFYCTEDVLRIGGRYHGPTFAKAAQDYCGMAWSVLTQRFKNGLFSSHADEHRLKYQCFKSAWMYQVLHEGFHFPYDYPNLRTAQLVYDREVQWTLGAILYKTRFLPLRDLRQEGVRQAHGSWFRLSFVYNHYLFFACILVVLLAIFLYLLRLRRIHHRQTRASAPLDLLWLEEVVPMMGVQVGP
UniProt O60739, whole entry, looked up: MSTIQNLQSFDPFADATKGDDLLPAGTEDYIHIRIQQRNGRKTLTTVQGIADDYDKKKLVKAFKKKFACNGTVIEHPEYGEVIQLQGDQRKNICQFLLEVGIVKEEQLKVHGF
UniProt Q9BUP0: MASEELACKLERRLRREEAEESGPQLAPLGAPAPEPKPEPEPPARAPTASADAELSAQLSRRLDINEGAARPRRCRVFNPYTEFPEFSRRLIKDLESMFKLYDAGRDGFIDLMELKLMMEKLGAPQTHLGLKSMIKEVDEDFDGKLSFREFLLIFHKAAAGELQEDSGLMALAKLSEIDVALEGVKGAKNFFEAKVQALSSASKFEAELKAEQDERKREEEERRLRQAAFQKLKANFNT
UniProt Q9Y6B2: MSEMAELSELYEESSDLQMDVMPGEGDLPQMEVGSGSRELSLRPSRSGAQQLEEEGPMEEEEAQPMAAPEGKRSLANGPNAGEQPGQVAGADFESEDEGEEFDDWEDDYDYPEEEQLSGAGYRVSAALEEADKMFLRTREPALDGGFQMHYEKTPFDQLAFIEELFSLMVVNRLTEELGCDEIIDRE
UniProt P0DPD8: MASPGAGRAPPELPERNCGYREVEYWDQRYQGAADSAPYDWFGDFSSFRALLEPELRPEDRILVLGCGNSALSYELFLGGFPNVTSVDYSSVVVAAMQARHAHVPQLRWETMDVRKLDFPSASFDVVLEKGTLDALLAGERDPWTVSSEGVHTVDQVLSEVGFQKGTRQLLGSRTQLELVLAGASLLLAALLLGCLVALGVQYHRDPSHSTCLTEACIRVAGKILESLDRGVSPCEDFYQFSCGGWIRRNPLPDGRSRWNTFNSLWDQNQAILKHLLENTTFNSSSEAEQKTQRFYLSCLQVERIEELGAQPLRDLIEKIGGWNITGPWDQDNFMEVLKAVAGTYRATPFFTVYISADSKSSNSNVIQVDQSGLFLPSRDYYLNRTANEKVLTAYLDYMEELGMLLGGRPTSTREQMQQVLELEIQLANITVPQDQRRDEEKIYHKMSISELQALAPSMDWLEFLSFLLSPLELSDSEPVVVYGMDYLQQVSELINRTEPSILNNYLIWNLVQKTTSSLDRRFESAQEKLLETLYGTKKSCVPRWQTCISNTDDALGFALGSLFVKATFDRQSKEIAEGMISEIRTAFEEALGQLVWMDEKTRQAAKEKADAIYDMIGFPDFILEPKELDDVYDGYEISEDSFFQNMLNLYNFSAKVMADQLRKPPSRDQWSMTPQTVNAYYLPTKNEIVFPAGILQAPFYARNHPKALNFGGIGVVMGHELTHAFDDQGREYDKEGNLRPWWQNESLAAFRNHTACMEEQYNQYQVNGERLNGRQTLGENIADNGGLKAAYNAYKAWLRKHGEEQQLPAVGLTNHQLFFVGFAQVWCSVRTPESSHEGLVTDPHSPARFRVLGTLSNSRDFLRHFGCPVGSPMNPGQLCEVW
UniProt Q5JPI9: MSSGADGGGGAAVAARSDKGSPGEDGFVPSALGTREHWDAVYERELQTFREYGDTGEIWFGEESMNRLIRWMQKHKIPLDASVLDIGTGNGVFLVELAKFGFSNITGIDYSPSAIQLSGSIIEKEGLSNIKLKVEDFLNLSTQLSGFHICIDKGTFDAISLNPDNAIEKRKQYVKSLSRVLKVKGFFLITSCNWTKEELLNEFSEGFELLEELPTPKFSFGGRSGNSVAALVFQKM
UniProt Q9UI10, whole entry, looked up: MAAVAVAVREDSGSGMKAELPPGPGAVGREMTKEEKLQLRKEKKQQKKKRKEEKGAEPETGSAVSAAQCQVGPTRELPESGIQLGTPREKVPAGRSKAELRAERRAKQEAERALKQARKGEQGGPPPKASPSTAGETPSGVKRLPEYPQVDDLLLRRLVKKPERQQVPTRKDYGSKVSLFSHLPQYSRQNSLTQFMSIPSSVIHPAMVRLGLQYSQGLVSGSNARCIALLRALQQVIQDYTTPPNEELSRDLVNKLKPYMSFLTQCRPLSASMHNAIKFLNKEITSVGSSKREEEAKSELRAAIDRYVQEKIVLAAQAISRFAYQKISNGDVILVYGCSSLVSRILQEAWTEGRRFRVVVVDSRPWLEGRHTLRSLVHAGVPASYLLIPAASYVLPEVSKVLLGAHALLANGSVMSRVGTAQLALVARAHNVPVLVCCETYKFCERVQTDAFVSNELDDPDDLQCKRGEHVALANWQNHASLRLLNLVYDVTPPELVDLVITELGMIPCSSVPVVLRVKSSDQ
UniProt Q9GZV4: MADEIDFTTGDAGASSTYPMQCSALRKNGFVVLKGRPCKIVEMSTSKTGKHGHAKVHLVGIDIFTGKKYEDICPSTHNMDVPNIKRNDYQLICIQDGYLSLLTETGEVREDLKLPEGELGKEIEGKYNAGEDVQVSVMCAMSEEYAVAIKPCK
UniProt Q05BV3: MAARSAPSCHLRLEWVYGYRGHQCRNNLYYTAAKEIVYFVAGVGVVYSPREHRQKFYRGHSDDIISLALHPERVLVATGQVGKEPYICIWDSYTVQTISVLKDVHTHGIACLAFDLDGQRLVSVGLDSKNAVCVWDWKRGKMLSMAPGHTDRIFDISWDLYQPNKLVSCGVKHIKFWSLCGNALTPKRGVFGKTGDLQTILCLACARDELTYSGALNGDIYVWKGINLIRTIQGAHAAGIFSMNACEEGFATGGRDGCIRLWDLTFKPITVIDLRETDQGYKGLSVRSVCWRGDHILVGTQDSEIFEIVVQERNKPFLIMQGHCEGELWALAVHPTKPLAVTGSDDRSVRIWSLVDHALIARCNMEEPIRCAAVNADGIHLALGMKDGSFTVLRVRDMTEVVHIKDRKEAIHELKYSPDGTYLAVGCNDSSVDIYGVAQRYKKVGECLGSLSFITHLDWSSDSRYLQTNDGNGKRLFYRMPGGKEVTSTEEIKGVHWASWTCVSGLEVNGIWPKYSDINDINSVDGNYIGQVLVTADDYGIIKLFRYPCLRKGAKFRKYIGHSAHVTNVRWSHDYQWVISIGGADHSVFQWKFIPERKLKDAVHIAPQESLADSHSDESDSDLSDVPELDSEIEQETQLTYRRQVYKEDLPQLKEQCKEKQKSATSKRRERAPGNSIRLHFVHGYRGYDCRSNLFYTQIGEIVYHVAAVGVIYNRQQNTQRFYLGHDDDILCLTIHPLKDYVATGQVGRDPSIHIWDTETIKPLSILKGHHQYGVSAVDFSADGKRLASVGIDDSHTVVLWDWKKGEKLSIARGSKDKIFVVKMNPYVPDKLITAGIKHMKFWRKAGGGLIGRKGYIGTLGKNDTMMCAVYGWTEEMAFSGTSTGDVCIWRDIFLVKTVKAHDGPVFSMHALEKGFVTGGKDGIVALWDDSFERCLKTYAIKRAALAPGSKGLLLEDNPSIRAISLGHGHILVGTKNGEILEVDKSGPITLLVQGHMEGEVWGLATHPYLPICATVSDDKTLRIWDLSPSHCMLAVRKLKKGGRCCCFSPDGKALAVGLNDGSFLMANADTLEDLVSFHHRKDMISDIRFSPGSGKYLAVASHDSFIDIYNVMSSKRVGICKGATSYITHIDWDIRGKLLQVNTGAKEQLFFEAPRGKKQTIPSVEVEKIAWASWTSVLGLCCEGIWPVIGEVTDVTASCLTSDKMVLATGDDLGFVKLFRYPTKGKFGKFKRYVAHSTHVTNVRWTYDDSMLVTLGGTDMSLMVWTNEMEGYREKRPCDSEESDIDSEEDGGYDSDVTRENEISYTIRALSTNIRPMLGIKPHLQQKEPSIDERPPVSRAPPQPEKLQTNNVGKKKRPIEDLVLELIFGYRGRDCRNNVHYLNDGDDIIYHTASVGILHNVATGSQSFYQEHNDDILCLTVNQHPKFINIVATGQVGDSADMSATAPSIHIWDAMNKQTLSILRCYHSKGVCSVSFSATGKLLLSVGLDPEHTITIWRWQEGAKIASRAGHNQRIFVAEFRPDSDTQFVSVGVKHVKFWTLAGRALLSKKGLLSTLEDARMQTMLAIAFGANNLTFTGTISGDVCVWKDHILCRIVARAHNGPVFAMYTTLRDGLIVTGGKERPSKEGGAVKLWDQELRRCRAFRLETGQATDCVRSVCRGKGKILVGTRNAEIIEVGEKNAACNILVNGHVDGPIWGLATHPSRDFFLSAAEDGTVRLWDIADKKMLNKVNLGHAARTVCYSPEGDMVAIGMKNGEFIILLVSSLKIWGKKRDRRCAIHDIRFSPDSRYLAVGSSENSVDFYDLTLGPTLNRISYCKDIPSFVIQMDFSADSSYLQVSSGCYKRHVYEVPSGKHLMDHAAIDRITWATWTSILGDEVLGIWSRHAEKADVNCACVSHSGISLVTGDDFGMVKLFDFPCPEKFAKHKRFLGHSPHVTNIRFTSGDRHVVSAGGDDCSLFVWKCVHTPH
UniProt Q8NDI1: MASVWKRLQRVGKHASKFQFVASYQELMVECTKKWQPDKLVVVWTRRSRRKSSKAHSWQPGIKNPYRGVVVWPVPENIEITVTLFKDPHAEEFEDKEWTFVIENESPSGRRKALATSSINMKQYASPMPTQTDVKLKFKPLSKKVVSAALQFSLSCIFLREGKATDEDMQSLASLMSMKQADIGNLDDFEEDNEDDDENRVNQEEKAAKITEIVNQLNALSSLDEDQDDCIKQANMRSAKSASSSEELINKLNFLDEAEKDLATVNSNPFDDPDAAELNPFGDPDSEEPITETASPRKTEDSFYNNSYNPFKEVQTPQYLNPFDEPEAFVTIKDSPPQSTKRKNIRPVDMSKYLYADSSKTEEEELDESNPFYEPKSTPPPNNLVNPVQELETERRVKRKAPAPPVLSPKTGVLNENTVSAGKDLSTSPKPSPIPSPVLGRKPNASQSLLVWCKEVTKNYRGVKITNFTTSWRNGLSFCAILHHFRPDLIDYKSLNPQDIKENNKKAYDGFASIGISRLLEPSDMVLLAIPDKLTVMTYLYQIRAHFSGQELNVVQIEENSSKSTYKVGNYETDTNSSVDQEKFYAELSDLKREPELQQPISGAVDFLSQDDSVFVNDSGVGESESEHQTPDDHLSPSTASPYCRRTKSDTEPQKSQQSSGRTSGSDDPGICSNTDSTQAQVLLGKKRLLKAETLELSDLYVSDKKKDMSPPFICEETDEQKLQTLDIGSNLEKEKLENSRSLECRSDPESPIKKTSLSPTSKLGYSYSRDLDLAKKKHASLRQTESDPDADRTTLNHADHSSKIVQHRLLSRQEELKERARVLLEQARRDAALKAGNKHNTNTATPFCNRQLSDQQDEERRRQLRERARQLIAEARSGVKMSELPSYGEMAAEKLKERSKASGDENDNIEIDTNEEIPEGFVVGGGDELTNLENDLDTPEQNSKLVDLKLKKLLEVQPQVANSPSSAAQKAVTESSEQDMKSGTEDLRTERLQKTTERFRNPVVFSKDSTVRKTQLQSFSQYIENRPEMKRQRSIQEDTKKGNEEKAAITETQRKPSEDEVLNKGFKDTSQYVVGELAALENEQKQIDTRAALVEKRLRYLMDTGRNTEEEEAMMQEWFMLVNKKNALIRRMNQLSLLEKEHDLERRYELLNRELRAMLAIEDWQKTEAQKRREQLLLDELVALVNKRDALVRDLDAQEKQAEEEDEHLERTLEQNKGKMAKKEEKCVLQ

What follows are targets tested with NC(=O)Nc1cc(-c2cccc(F)c2)sc1C(=O)N[C@H]1CCCNC1 (assay: log2 fold change, soluble protein after heating vs DMSO (PISA); higher = thermal stabilisation; K562 cells, 10 uM, 30 min; active = over 0.2 and 3.5 SD of the protein, either way, in both replicates (recomputed)).
In short: (§1)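 K562 cells at 2×10^6 cells/mL were treated with 10 μM compound for 30 min. Aliquots were heated for 3 min across 48°C-58°C, pooled, and extracted in PBS with 0.5% NP-40 at 4°C; soluble protein was the supernatant after 21,000xg for 90 min. Soluble protein was quantified by TMTpro 16plex LC-MS/MS with channel sums equalised, and reported as log2 fold change in thermal stability against DMSO controls, with values from duplicates.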

log2 fold change, inactive:
ENTPD4 (UniProt Q9Y227) 0.04
ENTPD7 (UniProt Q9NQZ7) 0.024
EIF1B (UniProt O60739) -0.098
EFHD1 (UniProt Q9BUP0) -0.118
EID1 (UniProt Q9Y6B2) -0.078
ENO2 (UniProt U3KQQ1) -0.291
EEF1AKMT4-ECE2 (UniProt P0DPD8) -0.058
EEF1AKMT2 (UniProt Q5JPI9) -0.148

The targets below were run with NC(=O)c1cnc(N[C@@H]2CCCC[C@@H]2N)nc1Nc1cccc(-n2nccn2)c1 in the same assay as above.
In short: as §1

log2 fold change, inactive:
EFCAB2 (UniProt Q5VUJ9) -0.112
EIF2AK3 (UniProt Q9NZJ5) 0.056
EPB41L1 (UniProt Q9H4G0) 0.156
EIF4B (UniProt F8VP89) 0.052
EIF2B4 (UniProt Q9UI10) 0.076
EIF3I (UniProt Q5TFK1) -0.139
EIF4G1 (UniProt Q04637) -0.14
EIF5A2 (UniProt Q9GZV4) -0.163
EML5 isoform 5 (UniProt Q05BV3) -0.101
EIF4H isoform 2 (UniProt Q15056) -0.442
EHBP1 (UniProt Q8NDI1) -0.092
ELOVL7 (UniProt A1L3X0) -0.001

Pulled one by one from the list above (two):
log2 fold change, inactive:
EIF3I (UniProt Q5TFK1) -0.139
EFCAB2 (UniProt Q5VUJ9) -0.112
